Assay results reported in PMC4911930.

The chains behind the UniProt entries cited, without tags or fusion partners.
UniProt Q5EE01: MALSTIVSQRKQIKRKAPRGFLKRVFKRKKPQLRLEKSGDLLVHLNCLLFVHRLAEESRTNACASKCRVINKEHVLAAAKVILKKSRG
UniProt A8MT69: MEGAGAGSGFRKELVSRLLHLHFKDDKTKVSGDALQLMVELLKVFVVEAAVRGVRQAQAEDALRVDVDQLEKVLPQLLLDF
UniProt P06748: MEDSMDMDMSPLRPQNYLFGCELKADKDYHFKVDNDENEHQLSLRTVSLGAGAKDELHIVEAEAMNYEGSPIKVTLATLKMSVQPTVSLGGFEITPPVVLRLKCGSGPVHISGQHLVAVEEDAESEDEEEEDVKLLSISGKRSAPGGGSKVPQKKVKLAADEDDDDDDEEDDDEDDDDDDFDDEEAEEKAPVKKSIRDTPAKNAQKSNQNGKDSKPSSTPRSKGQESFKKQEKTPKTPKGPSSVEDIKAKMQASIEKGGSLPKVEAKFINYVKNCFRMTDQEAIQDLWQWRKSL
UniProt Q9Y5B9: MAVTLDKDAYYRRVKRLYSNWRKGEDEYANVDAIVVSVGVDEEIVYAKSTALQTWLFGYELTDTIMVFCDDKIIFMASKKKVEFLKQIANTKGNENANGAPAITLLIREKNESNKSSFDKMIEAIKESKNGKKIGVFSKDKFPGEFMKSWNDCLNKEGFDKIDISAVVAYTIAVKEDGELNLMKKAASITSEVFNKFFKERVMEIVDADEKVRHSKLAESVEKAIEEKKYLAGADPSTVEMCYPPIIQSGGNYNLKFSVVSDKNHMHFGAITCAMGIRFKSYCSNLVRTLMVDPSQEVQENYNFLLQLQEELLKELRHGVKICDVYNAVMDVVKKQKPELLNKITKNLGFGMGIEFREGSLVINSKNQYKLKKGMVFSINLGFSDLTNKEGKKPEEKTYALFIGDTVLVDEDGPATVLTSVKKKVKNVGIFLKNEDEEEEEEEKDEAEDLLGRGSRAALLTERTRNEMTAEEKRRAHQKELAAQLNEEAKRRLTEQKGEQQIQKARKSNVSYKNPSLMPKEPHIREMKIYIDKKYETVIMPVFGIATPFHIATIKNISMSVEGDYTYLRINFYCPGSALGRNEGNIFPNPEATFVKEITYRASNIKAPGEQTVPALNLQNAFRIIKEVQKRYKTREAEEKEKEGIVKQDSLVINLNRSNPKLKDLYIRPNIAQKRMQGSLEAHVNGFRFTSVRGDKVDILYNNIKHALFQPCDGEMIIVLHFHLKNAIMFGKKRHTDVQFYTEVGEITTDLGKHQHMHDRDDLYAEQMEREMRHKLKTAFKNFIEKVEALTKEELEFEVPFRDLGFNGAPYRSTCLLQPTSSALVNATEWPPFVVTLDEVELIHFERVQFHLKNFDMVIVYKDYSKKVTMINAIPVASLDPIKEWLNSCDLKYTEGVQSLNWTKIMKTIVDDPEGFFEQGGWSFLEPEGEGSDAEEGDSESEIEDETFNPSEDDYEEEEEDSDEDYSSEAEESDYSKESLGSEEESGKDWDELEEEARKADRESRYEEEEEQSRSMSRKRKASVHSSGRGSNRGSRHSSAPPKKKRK

Biological target: CENP-W-GFP (UniProt Q5EE01)
Experiment: affinity purification with mass spectrometry; GFP-Trap pull-down of CENP-W-GFP from low-salt and high-salt extracts of HeLa cells; immunoprecipitation buffer with 300 mM NaCl; GFP alone as control; biological triplicates

For CENP-X (from UniProt A8MT69 1-81), the binding was “no binding”.

With NPM1 (from UniProt P06748 1-294) the binding was “binds”.

For Spt16 (from UniProt Q9Y5B9 1-1047), the binding was “binds”.

These are yes or no findings as the source states them, for the method shown. In cells and extracts the contact can be indirect. Here binding means that the protein was enriched with, or labelled near, the bait; the list need not be complete. No binding means not detected with the bait.
